log2 fold change data for seven targets are collected here from the supplement of paper PMC12819154, “High-throughput peptide-centric local stability assay extends protein–ligand identification to membrane proteins, tissues and bacteria” (Nature Structural & Molecular Biology, 2025).

By UniProt entry, the sequences of proteins in these tests, tags left out. Where a name states a change or a piece, a line headed by the entry shows the natural chain unless it says otherwise.
UniProt P48681: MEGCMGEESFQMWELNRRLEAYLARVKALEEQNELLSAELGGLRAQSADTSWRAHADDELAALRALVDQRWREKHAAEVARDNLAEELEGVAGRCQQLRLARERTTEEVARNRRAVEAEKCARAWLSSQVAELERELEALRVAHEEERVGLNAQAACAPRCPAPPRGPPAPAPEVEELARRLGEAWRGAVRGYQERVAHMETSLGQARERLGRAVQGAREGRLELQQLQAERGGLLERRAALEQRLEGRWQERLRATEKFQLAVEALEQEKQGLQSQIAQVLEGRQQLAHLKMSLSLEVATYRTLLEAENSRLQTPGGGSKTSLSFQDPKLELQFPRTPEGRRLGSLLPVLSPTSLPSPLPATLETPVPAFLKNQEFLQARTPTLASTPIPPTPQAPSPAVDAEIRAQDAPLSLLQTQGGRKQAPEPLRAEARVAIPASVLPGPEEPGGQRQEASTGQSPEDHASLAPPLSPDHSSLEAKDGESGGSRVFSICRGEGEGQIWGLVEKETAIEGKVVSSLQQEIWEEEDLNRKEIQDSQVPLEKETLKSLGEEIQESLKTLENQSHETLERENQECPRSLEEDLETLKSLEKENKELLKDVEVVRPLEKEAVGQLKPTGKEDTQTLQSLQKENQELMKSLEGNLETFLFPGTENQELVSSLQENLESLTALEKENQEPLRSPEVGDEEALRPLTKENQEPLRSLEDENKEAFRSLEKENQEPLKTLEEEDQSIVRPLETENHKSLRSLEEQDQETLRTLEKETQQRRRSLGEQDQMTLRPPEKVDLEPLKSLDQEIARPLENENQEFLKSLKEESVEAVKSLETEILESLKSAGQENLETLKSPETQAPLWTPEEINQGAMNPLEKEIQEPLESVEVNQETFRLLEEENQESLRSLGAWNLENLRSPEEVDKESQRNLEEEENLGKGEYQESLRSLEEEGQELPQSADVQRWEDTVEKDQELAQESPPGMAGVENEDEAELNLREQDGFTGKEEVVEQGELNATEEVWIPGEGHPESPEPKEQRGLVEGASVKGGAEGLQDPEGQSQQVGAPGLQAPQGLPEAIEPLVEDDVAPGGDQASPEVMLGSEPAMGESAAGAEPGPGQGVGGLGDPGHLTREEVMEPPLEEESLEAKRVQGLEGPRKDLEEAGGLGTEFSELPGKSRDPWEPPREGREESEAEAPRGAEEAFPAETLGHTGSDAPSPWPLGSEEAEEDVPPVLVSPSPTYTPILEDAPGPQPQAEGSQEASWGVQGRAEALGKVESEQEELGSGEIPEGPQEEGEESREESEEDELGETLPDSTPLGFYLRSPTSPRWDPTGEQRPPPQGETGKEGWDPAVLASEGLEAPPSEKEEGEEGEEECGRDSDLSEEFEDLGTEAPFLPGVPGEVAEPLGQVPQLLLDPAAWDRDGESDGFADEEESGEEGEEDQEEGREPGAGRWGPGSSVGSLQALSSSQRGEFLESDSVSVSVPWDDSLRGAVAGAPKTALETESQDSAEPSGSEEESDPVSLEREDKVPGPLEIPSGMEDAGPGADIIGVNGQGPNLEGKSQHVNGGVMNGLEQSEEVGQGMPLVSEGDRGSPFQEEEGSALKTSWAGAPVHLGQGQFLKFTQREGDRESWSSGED
UniProt P52565: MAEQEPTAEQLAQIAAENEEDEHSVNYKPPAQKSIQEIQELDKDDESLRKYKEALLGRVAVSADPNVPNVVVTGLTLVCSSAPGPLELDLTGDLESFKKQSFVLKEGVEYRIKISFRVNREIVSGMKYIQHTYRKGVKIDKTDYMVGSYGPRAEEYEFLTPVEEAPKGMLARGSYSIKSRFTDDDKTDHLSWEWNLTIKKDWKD
UniProt P50747: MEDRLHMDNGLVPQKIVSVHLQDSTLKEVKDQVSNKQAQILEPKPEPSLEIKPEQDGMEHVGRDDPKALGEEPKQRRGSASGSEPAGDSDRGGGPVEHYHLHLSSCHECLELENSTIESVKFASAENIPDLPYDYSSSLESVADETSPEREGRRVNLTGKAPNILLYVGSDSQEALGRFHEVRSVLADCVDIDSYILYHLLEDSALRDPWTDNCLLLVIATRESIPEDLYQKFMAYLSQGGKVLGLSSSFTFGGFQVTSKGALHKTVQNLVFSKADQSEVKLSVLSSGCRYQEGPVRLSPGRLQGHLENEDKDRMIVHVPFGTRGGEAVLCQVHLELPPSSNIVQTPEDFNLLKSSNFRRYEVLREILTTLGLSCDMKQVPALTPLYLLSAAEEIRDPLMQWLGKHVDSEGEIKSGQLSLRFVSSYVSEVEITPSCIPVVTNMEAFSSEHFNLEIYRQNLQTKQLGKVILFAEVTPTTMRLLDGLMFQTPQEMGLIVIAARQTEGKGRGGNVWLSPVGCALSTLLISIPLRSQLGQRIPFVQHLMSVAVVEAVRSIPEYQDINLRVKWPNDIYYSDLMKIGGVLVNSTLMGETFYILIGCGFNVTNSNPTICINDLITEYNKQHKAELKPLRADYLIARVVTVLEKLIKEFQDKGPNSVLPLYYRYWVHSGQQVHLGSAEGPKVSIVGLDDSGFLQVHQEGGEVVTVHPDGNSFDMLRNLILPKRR
UniProt P52564: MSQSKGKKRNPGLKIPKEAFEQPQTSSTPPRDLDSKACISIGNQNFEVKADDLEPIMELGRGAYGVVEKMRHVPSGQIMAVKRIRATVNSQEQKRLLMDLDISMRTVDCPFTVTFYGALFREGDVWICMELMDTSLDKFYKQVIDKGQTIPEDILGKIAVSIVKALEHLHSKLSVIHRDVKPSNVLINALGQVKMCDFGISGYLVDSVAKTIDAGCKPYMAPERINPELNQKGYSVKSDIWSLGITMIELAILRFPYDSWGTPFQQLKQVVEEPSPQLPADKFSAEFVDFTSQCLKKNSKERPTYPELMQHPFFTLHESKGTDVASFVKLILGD
UniProt P49454: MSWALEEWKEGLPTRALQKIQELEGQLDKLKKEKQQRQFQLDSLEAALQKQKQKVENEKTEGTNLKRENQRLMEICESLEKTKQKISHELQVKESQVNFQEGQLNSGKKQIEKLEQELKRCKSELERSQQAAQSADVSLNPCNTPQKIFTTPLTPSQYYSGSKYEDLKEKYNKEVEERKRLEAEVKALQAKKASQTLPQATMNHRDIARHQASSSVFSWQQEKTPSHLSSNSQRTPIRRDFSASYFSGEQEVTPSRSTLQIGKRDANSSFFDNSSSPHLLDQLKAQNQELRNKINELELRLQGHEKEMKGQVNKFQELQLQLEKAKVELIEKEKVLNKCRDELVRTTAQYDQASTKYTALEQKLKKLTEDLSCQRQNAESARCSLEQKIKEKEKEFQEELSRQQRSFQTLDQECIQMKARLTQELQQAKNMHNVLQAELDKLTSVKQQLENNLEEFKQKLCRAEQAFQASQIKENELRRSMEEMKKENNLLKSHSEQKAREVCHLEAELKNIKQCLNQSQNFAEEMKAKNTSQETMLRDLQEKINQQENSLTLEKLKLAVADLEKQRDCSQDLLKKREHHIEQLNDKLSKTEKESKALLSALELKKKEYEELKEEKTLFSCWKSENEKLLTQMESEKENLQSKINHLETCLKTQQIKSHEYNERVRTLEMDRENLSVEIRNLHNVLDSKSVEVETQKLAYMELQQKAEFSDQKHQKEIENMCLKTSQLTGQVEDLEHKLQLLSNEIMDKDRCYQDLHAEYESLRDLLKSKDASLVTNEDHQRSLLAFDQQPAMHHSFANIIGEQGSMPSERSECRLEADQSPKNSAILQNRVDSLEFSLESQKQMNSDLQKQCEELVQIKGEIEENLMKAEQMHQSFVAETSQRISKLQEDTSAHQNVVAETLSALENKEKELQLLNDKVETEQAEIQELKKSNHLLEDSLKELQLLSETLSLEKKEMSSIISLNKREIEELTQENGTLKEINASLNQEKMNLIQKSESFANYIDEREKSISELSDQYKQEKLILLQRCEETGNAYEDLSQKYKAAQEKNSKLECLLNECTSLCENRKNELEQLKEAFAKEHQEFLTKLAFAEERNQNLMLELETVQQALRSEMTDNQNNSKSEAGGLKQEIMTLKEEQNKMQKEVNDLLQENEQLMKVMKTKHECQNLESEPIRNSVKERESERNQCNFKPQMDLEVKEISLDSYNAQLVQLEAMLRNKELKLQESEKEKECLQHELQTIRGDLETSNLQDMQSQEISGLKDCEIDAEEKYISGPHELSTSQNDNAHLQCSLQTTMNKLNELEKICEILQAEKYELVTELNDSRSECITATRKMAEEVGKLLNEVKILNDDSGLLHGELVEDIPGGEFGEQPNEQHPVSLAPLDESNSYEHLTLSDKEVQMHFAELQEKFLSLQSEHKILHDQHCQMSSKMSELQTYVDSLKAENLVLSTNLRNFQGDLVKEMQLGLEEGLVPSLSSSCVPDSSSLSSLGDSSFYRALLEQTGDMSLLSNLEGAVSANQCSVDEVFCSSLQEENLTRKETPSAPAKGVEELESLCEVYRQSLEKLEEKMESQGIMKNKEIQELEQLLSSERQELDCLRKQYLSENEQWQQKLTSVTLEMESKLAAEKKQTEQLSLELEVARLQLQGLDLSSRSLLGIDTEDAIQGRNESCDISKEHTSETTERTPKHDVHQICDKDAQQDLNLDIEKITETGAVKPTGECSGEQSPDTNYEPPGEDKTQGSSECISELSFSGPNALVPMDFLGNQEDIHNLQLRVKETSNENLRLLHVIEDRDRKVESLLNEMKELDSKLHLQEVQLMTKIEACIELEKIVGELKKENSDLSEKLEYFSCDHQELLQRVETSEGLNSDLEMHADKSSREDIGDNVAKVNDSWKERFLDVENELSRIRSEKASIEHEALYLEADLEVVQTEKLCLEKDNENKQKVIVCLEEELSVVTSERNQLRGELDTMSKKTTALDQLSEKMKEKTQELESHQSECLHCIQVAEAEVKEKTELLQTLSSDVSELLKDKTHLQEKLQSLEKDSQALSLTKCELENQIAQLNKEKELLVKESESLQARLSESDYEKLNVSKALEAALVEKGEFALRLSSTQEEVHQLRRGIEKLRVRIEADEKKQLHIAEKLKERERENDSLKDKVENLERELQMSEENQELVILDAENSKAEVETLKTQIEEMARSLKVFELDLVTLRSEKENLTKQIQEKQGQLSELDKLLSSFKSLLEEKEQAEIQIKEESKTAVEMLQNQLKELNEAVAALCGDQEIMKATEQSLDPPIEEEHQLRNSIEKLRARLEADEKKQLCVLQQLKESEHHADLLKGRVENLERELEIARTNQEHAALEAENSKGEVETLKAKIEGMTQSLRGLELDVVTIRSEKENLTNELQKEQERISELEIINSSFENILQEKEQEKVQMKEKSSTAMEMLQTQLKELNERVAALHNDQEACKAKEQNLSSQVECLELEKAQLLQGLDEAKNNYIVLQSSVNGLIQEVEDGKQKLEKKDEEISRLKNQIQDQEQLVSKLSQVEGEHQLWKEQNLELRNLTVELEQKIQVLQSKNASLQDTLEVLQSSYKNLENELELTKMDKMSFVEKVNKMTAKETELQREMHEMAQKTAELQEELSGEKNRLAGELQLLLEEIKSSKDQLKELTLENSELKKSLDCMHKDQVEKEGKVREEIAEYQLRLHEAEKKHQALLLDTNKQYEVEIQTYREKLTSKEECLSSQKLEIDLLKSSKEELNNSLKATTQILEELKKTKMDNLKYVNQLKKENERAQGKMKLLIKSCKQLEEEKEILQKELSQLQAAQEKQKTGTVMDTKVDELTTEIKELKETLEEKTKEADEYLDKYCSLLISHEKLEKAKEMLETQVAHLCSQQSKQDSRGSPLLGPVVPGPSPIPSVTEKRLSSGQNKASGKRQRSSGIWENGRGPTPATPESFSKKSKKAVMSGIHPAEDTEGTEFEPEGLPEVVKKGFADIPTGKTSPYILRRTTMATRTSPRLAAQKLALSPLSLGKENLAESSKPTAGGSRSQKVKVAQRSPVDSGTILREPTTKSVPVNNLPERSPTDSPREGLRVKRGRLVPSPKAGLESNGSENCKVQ

Some of the results follow. Most entries show no effect beyond the scatter of the controls.

Compound in this test: CN[C@@H]1C[C@H]2O[C@@](C)([C@@H]1OC)n1c3ccccc3c3c4c(c5c6ccccc6n2c5c31)C(=O)NC4 [staurosporine]
Kind of test: log2 fold change of tryptic peptide abundance, ligand vs vehicle (limited proteolysis) (log2 ratio); higher = more trypsin-susceptible (destabilized). Conditions: ligand concentration: 20 uM; sample: K562 cleared lysate; digestion: 4 min, 22 C (HT-PELSA RT4min, Orbitrap Astral).

Turning to “NES (peptide sequence: WDPTGEQRPPPQGETGK, peptide start residue: 1313) (UniProt P48681)”, the log2 fold change was -0.232.

As to “SMARCA4 (peptide sequence: AIEEGTLEEIEEEVRQK, peptide start residue: 1391) (UniProt P51532)”, the log2 fold change was 0.562.

As to “ARHGDIA (peptide sequence: KYKEALLGR, peptide start residue: 50) (UniProt P52565)”, the log2 fold change was determined as 0.33.

Take “HLCS (peptide sequence: GSASGSEPAGDSDR, peptide start residue: 78) (UniProt P50747)”: the log2 fold change came to 0.358.

As for “UniProt P52564 (peptide sequence: ATVNSQEQKR, peptide start residue: 97)”, the log2 fold change was -1.02.

As to “UniProt P49450 (peptide sequence: IRGLEEGLG, peptide start residue: 132)”, the log2 fold change is -0.12.

With “CENPF (peptide sequence: LQLLSNEIMDKDR, peptide start residue: 739) (UniProt P49454)”, the log2 fold change is -0.673.
